Assay results published in PubChem BioAssay AID1519 (National Center for Advancing Translational Sciences (NCATS), 2009).
The list shows a part of the results.

Test: qHTS Assay for Lipid Storage Modulators
Conditions: Drosophila S3 cells, BODIPY lipid droplet/cell ratio, laser cytometry, cells loaded with oleic acid
[1] = measured here: cell count channel max response
[2] = measured here: lipid channel max response

| Compound | max response [1] | max response [2] |
| --- | --- | --- |
| NC(=O)Nc1ccc([As](=O)(O)O)cc1 | 12.2% | 9.24% |
| CN(CCCl)CCCl | -16.7% | -23.7% |
